Source: the supplement of paper PMC8612539
In brackets after ≈: the same amount, converted by molar mass. This continues a long series; more values of the same kind are listed elsewhere.

Test system: Escherichia coli
Test: minimum inhibitory concentration (MIC)
Description: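 Broth microdilution MIC (Sensititre BOPO7F bovine plate, CLSI methods) of 19 antimicrobials against field isolates of P. multocida, M. haemolytica, H. somni (deep nasopharyngeal swabs) and E. coli, Enterococcus spp. (rectal swabs) from weaned dairy heifers. Incubation 16-24 h at 35 C. MIC is the lowest concentration preventing visible growth. Values with <= or > lie at the tested range limits. Trimethoprim-sulfamethoxazole is given as the trimethoprim component of a 1:19 mixture.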

CC[C@H]1OC(=O)C[C@@H](O)[C@H](C)[C@@H](O[C@@H]2O[C@H](C)[C@@H](O)[C@H](N(C)C)[C@H]2O)[C@@H](CCN2C[C@H](C)C[C@H](C)C2)C[C@@H](C)C(=O)/C=C/C(C)=C/[C@@H]1CO[C@@H]1O[C@H](C)[C@@H](O)[C@@H](OC)[C@H]1OC [Tilmicosin]
Details | minimum inhibitory concentration [µg/mL]
isolate (source animal id): 1 | > 16
isolate (source animal id): 2 | > 16
isolate (source animal id): 3 | > 16
isolate (source animal id): 4 | > 16
isolate (source animal id): 5 | > 16
isolate (source animal id): 6 | > 16
isolate (source animal id): 7 | > 16
isolate (source animal id): 17 | > 16
isolate (source animal id): 18 | > 16
isolate (source animal id): 19 | > 16
isolate (source animal id): 20 | > 16
isolate (source animal id): 21 | > 16
isolate (source animal id): 22 | > 16
isolate (source animal id): 23 | > 16
isolate (source animal id): 24 | > 16
isolate (source animal id): 25 | > 16
isolate (source animal id): 26 | > 16
isolate (source animal id): 27 | > 16
isolate (source animal id): 28 | > 16
isolate (source animal id): 29 | > 16
isolate (source animal id): 30 | > 16
isolate (source animal id): 31 | > 16
isolate (source animal id): 32 | > 16
isolate (source animal id): 33 | > 16
isolate (source animal id): 34 | > 16
isolate (source animal id): 35 | > 16
isolate (source animal id): 36 | > 16
isolate (source animal id): 37 | > 16
isolate (source animal id): 38 | > 16
isolate (source animal id): 39 | > 16
isolate (source animal id): 40 | > 16
isolate (source animal id): 41 | > 16
isolate (source animal id): 42 | > 16
isolate (source animal id): 43 | > 16
isolate (source animal id): 44 | > 16
isolate (source animal id): 45 | > 16
isolate (source animal id): 46 | > 16
isolate (source animal id): 47 | > 16
isolate (source animal id): 48 | > 16
isolate (source animal id): 49 | > 16
isolate (source animal id): 50 | > 16
isolate (source animal id): 51 | > 16
isolate (source animal id): 52 | > 16
isolate (source animal id): 53 | > 16
isolate (source animal id): 54 | > 16
isolate (source animal id): 55 | > 16
isolate (source animal id): 56 | > 16
isolate (source animal id): 57 | > 16
isolate (source animal id): 58 | > 16
isolate (source animal id): 59 | > 16
isolate (source animal id): 60 | > 16
isolate (source animal id): 61 | > 16
isolate (source animal id): 62 | > 16
isolate (source animal id): 63 | > 16
isolate (source animal id): 64 | > 16
isolate (source animal id): 65 | > 16
isolate (source animal id): 66 | > 16
isolate (source animal id): 67 | > 16
isolate (source animal id): 68 | > 16
isolate (source animal id): 69 | > 16
isolate (source animal id): 70 | > 16
isolate (source animal id): 71 | > 16
isolate (source animal id): 72 | > 16
isolate (source animal id): 73 | > 16
isolate (source animal id): 74 | > 16
isolate (source animal id): 75 | > 16
isolate (source animal id): 76 | > 16
isolate (source animal id): 77 | > 16
isolate (source animal id): 78 | > 16
isolate (source animal id): 79 | > 16
isolate (source animal id): 80 | > 16
isolate (source animal id): 81 | > 16
isolate (source animal id): 82 | > 16
isolate (source animal id): 83 | > 16
isolate (source animal id): 84 | > 16
isolate (source animal id): 85 | > 16
isolate (source animal id): 86 | > 16
isolate (source animal id): 87 | > 16
isolate (source animal id): 88 | > 16
isolate (source animal id): 89 | > 16
isolate (source animal id): 90 | > 16
isolate (source animal id): 91 | > 16
isolate (source animal id): 92 | > 16
isolate (source animal id): 93 | > 16
isolate (source animal id): 94 | > 16
isolate (source animal id): 95 | > 16
isolate (source animal id): 96 | > 16
isolate (source animal id): 97 | > 16
isolate (source animal id): 189 | > 16
isolate (source animal id): 190 | > 16
isolate (source animal id): 191 | > 16
isolate (source animal id): 192 | > 16
isolate (source animal id): 193 | > 16
isolate (source animal id): 194 | > 16
isolate (source animal id): 195 | > 16
isolate (source animal id): 196 | > 16
isolate (source animal id): 197 | > 16
isolate (source animal id): 198 | > 16
isolate (source animal id): 199 | > 16
isolate (source animal id): 200 | > 16
isolate (source animal id): 201 | > 16
isolate (source animal id): 202 | > 16
isolate (source animal id): 203 | > 16
isolate (source animal id): 204 | > 16
isolate (source animal id): 205 | > 16
isolate (source animal id): 206 | > 16
isolate (source animal id): 207 | > 16
isolate (source animal id): 208 | > 16
isolate (source animal id): 209 | > 16
isolate (source animal id): 210 | > 16
isolate (source animal id): 211 | > 16
isolate (source animal id): 212 | > 16
isolate (source animal id): 213 | > 16
isolate (source animal id): 214 | > 16
isolate (source animal id): 215 | > 16
isolate (source animal id): 216 | > 16
isolate (source animal id): 217 | > 16
isolate (source animal id): 218 | > 16
isolate (source animal id): 219 | > 16
isolate (source animal id): 220 | > 16
isolate (source animal id): 221 | > 16
isolate (source animal id): 222 | > 16
isolate (source animal id): 223 | > 16
isolate (source animal id): 224 | > 16
isolate (source animal id): 225 | > 16
isolate (source animal id): 226 | > 16
isolate (source animal id): 227 | > 16
isolate (source animal id): 228 | > 16
isolate (source animal id): 229 | > 16
isolate (source animal id): 230 | > 16
isolate (source animal id): 231 | > 16
isolate (source animal id): 232 | > 16
isolate (source animal id): 233 | 16 (≈ 18.4 µM)
isolate (source animal id): 234 | > 16
isolate (source animal id): 235 | > 16
isolate (source animal id): 236 | > 16
isolate (source animal id): 237 | > 16
isolate (source animal id): 238 | 16 (≈ 18.4 µM)
isolate (source animal id): 239 | > 16
isolate (source animal id): 240 | > 16
isolate (source animal id): 241 | > 16
isolate (source animal id): 242 | > 16
isolate (source animal id): 243 | > 16
isolate (source animal id): 244 | > 16
isolate (source animal id): 245 | > 16
isolate (source animal id): 246 | > 16
isolate (source animal id): 247 | 16 (≈ 18.4 µM)
isolate (source animal id): 248 | > 16
isolate (source animal id): 249 | > 16
isolate (source animal id): 250 | > 16
isolate (source animal id): 251 | > 16
isolate (source animal id): 252 | > 16
isolate (source animal id): 253 | > 16
isolate (source animal id): 254 | > 16
isolate (source animal id): 255 | > 16
isolate (source animal id): 256 | > 16
isolate (source animal id): 257 | > 16
isolate (source animal id): 258 | > 16
isolate (source animal id): 259 | > 16
isolate (source animal id): 260 | > 16
isolate (source animal id): 261 | > 16
isolate (source animal id): 262 | > 16
isolate (source animal id): 263 | > 16
isolate (source animal id): 264 | > 16
isolate (source animal id): 265 | > 16
isolate (source animal id): 266 | > 16
isolate (source animal id): 267 | > 16
isolate (source animal id): 268 | > 16
isolate (source animal id): 269 | > 16
isolate (source animal id): 270 | > 16
isolate (source animal id): 271 | > 16
isolate (source animal id): 272 | > 16
isolate (source animal id): 273 | > 16
isolate (source animal id): 274 | > 16
isolate (source animal id): 275 | > 16
isolate (source animal id): 276 | > 16
isolate (source animal id): 277 | > 16
isolate (source animal id): 278 | > 16
isolate (source animal id): 279 | > 16
isolate (source animal id): 280 | > 16
isolate (source animal id): 281 | > 16
isolate (source animal id): 282 | > 16
isolate (source animal id): 283 | > 16
isolate (source animal id): 284 | > 16
isolate (source animal id): 285 | > 16
isolate (source animal id): 286 | > 16
isolate (source animal id): 287 | > 16
isolate (source animal id): 288 | > 16
isolate (source animal id): 289 | > 16
isolate (source animal id): 290 | > 16
isolate (source animal id): 291 | > 16
isolate (source animal id): 292 | > 16
isolate (source animal id): 293 | > 16
isolate (source animal id): 294 | 16 (≈ 18.4 µM)
isolate (source animal id): 295 | > 16
isolate (source animal id): 296 | > 16
isolate (source animal id): 297 | > 16
isolate (source animal id): 298 | > 16
isolate (source animal id): 299 | > 16
isolate (source animal id): 300 | > 16
isolate (source animal id): 301 | > 16
isolate (source animal id): 302 | > 16
isolate (source animal id): 303 | > 16
isolate (source animal id): 304 | > 16
isolate (source animal id): 305 | > 16
isolate (source animal id): 306 | > 16
isolate (source animal id): 307 | > 16
isolate (source animal id): 308 | > 16
isolate (source animal id): 309 | > 16
isolate (source animal id): 310 | > 16
isolate (source animal id): 311 | > 16
isolate (source animal id): 312 | > 16
isolate (source animal id): 313 | > 16
isolate (source animal id): 314 | > 16
isolate (source animal id): 315 | > 16
isolate (source animal id): 316 | > 16
isolate (source animal id): 317 | 16 (≈ 18.4 µM)
isolate (source animal id): 318 | > 16
isolate (source animal id): 319 | > 16
isolate (source animal id): 320 | > 16
isolate (source animal id): 321 | > 16
isolate (source animal id): 322 | > 16
isolate (source animal id): 323 | > 16
isolate (source animal id): 324 | > 16
isolate (source animal id): 325 | > 16
isolate (source animal id): 326 | > 16
isolate (source animal id): 327 | > 16
isolate (source animal id): 328 | > 16
isolate (source animal id): 329 | > 16
isolate (source animal id): 330 | > 16
isolate (source animal id): 331 | > 16
isolate (source animal id): 332 | > 16
isolate (source animal id): 333 | > 16
isolate (source animal id): 334 | > 16
isolate (source animal id): 335 | > 16
isolate (source animal id): 336 | > 16
isolate (source animal id): 337 | > 16
isolate (source animal id): 338 | > 16
isolate (source animal id): 339 | > 16
isolate (source animal id): 340 | > 16
isolate (source animal id): 341 | > 16
